Record: PubChem BioAssay AID1259425 (University of Nebraska Medical Center, 2018)

Purpose: 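Seek colon cancer weak points whose silencing resembles KSR1 loss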 (primary screen)
Cell system: HCT116 human colon cancer cells
Reagent: siRNA pool against human genes, 50 nM siRNA
Measured: 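After 50 nM siRNA pool, branched-DNA assay measures six marker transcripts per well, minus blank, normalised to the geometric mean of two housekeeping transcripts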
Direction: BNIP3L mRNA: higher = more BNIP3L transcript after knockdown
Here is a random part of about 14,000 reagents. Further read-outs or replicates are left out here. The record does not give: the time to read-out.

gene symbol | BNIP3L mRNA, set 1
FCGR3A | 0.171
PRM3 | 0.132
EPCAM | 0.0587
TMEM191A | 0.163
CNDP1 | 0.117
CD19 | 0.0895
OGFR | 0.084
DDX27 | 0.227
EPHX1 | 0.0843
PRIM2 | 0.0626
ZNF691 | 0.132
ANGPTL7 | 0.0706
FKBP11 | 0.138
ATRN | 0.0874
NDST1 | 0.151
PRCP | 0.0719
ZNF263 | 0.105
RPS27 | 0.152
ATP5F1E | 0.0787
ODF1 | 0.208
MRC1 | 0.0866
SMPD2 | 0.218
ACAD9 | 0.081
CXCL8 | 0.126
TIA1 | 0.0999
RPUSD4 | 0.181
GRIA3 | 0.0814
DNAI4 | 0.0809
SCARB1 | 0.0981
MRPL47 | 0.297
HSD3B2 | 0.145
ZNF77 | 0.232
PHF23 | 0.0989
METTL13 | 0.16
